# Test results taken from the supplement of paper PMC12823440, “Inhibitors supercharge kinase turnover through native proteolytic circuits” (Nature, 2025).
# Amino acid sequences for entries named in this document (tags omitted). A change or cut given only in a name is not applied to a line headed by its entry.
# UniProt P48729: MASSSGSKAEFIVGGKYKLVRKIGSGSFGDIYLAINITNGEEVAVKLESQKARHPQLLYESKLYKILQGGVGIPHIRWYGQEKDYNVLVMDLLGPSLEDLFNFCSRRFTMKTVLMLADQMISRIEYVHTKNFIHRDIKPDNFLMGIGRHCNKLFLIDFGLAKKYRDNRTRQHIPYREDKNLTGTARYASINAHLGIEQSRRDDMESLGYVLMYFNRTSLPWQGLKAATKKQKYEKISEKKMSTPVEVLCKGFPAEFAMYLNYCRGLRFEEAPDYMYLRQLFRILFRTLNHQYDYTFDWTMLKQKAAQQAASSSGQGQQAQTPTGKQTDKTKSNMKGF
# UniProt P48730: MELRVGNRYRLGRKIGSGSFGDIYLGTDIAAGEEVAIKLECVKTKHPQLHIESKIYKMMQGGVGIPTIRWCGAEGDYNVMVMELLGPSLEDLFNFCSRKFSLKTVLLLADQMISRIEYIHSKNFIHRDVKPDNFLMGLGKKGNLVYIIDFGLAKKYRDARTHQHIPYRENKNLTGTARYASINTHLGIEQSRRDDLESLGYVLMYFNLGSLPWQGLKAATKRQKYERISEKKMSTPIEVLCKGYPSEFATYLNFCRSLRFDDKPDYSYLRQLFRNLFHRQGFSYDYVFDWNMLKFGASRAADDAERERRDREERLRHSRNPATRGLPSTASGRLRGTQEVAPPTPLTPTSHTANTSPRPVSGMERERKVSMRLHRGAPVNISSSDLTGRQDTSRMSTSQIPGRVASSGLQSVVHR
# UniProt Q08345: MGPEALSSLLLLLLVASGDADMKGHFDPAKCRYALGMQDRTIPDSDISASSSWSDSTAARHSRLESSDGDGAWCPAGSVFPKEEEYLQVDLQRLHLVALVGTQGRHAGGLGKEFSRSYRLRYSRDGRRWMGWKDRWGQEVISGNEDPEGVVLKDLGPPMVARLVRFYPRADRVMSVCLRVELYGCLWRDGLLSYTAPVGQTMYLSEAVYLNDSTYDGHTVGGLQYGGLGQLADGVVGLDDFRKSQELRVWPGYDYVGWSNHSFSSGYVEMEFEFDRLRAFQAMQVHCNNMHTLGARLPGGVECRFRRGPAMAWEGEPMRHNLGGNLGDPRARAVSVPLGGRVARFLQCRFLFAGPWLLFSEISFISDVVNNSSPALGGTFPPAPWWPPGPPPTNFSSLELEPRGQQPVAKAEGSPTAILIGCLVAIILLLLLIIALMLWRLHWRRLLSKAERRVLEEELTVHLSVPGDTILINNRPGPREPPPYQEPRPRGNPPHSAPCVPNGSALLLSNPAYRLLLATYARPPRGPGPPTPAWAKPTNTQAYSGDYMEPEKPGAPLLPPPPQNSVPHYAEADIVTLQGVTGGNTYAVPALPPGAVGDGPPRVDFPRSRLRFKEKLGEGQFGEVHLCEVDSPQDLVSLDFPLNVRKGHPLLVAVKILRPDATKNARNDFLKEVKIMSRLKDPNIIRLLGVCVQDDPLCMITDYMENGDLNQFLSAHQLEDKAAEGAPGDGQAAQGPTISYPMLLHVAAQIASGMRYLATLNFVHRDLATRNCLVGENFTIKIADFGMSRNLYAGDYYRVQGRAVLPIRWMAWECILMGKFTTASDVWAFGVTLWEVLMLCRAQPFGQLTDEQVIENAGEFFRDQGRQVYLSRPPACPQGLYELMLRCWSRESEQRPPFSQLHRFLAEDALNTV
# UniProt Q9Y463, whole entry, looked up: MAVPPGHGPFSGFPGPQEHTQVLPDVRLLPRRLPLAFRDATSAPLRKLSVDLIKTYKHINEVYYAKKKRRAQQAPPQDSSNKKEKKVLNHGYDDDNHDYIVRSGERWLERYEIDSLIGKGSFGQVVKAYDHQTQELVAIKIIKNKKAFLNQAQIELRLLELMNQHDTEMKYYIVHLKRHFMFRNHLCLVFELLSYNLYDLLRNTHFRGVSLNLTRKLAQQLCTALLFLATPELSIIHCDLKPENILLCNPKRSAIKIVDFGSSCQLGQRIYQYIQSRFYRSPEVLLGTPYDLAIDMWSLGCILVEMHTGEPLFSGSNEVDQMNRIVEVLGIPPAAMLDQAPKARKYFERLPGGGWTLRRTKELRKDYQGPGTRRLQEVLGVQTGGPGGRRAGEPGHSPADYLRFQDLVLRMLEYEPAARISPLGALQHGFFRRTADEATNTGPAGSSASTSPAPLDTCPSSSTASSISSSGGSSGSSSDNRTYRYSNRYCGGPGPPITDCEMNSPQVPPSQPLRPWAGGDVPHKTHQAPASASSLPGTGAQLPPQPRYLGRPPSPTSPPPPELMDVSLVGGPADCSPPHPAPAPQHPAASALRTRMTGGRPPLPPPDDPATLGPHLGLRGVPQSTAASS
# UniProt Q92630: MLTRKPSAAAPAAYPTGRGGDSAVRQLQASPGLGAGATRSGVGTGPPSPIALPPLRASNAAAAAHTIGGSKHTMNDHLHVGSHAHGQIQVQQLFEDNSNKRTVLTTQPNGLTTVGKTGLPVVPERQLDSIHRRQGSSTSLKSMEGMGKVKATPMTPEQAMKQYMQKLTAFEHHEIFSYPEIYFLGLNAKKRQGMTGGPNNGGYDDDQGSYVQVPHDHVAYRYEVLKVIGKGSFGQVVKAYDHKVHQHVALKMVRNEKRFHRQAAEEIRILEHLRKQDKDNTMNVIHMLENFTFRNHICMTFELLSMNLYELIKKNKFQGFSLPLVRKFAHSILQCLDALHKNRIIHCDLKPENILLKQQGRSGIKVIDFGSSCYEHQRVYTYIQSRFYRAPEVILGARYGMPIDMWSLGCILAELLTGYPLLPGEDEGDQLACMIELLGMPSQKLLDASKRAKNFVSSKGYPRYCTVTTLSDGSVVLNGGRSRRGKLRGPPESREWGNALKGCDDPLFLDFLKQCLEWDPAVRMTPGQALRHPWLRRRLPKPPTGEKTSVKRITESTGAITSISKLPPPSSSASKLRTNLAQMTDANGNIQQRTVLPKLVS
# Counter-ions that a name gives are not always drawn. The list shows a part of the results. The calls rarely recur for the same compound in another form.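 Kinases, fused to nanoluciferase, were expressed in K562 cells; luminescence was measured every 4 h from 2 to 18 h as percent of control (DMSO = 100%, positive control = 0%). A time point is decreased if signal falls significantly (2 sigma). Hits were called by the authors by a rule that is not shown; the count of time points alone does not decide it.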
# Tests used:
# Experiment in all cases: number of time points (of 5) at which kinase-Nluc abundance scored as decreased, DMSO-normalised (count); higher = more persistent destabilization
# Details in all cases: K562; 2-18 h
# [1] = molecular target: CSNK1A1 (UniProt P48729)
# [2] = molecular target: CSNK1D (UniProt P48730)
# [3] = molecular target: DDR1 (UniProt Q08345)
# [4] = molecular target: DYRK1B (UniProt Q9Y463)
# [5] = molecular target: DYRK2 (UniProt Q92630)
# [6] = molecular target: EGFR (UniProt P00533)
# [7] = molecular target: EGFR_G719S (UniProt P00533)
# [8] = molecular target: EGFR_G719S_T790M (UniProt P00533)
# [9] = molecular target: EGFR_L718V (UniProt P00533)
# [10] = molecular target: EGFR_L858R (UniProt P00533)
Compound,number of time points [1],number of time points [2],number of time points [3],number of time points [4],number of time points [5],number of time points [6],number of time points [7],number of time points [8],number of time points [9],number of time points [10]
Nc1ncc(-c2cccc(N3CCNCC3)c2)cc1C(=O)Nc1ccncc1 [PKC-iota inhibitor 1] (10 µM),0,0,0,0,0,0,0,0,0,0
Cc1cc(NC(=O)c2cccc(NC(=O)/C=C/CN(C)C)c2)ccc1Nc1nccc(-c2cccnc2)n1 (10 µM),0,0,0,0,0,0,0,0,0,0
Cc1ccc(S(=O)(=O)Nc2ccccc2C=Nc2ccccc2NS(=O)(=O)c2ccc(C)cc2)cc1 (10 µM),0,0,0,0,0,0,0,0,0,0
CCN(CC)S(=O)(=O)c1ccc(OC)c(N2CCN(C(=O)c3ccc(F)cc3C(F)(F)F)CC2)c1 (10 µM),0,0,0,0,0,0,0,0,0,0
Cc1c(CN2CCN(C(=O)[C@H](C)O)CC2)sc2c(N3CCOCC3)nc(-c3cnc(N)nc3)nc12 [Apitolisib] (10 µM),3,0,3,0,3,2,2,0,0,0
CN(CC(=O)N(Cc1ccc(C2CCCCC2)cc1)c1ccc(C(=O)O)cc1)S(=O)(=O)c1c(F)c(F)c(F)c(F)c1F (2.5 µM),0,0,0,0,0,0,0,0,0,0
CC/C=C\C/C=C\C/C=C\CCCCCCCC(=O)O [α-Linolenic acid] (10 µM),0,0,0,0,0,0,0,0,0,0
COc1ccc(-c2ccc3c(N4CCOC[C@@H]4C)nc(N4CCOC[C@@H]4C)nc3n2)cc1CO (2.5 µM),4,4,4,3,4,1,3,3,0,3
Nc1nccc(Oc2ccc(NC(=O)c3cn(COP(=O)(O)O)cc(-c4ccc(F)cc4)c3=O)cc2F)c1Cl (10 µM),0,0,1,0,1,0,0,2,0,1
CC(C)=CCC[C@](C)(O[C@@H]1O[C@H](CO)[C@@H](O)[C@H](O)[C@H]1O)[C@H]1CC[C@]2(C)[C@@H]1[C@H](O)C[C@@H]1[C@@]3(C)CC[C@H](O)C(C)(C)[C@@H]3[C@@H](O[C@@H]3O[C@H](CO)[C@@H](O)[C@H](O)[C@H]3O[C@@H]3O[C@@H](C)[C@H](O)[C@@H](O)[C@H]3O)C[C@]12C [Ginsenoside Re] (10 µM),0,0,0,0,0,0,0,0,0,0
CC(c1ccc(-c2cnc3c(-c4ccc(S(N)(=O)=O)c5ccccc45)cnn3c2)cc1)N1CCCC1 (stereo not given) (2.5 µM),0,0,0,0,0,0,0,0,0,0
c1cn2cc(-c3ccc4cn[nH]c4c3)nc(Nc3ccc(N4CCOCC4)cc3)c2n1 [Entospletinib] (10 µM),0,0,0,0,0,0,0,0,0,0
COc1cc(N2CCN(C)CC2)ccc1Nc1ncc2c(n1)N(C1CCC1)C(=O)N(c1c(C)cccc1C)C2 (2.5 µM),0,0,0,0,0,0,0,0,0,0
CS(=O)(=O)c1ccc(-c2cnc(N)c(C(=O)Nc3ccccc3)n2)cc1 (10 µM),0,0,0,0,0,0,0,0,0,0
OCCNC1CCCc2c1[nH]c1ccc(-c3ccccc3)cc21 (stereo not given) (2.5 µM),0,0,1,1,2,0,1,0,0,0
Nc1ncnc2c1c(-c1ccc(Oc3ccccc3)cc1)nn2C1CCCNC1 (racemic) (2.5 µM),0,0,0,0,0,0,0,0,0,0
CC1=C2C(=O)O[C@@H](c3ccoc3)[C@]2(C)CCC1 [Fraxinellone] (10 µM),0,0,0,0,0,0,0,0,0,0

Compound,number of time points [1],number of time points [2],number of time points [3],number of time points [4],number of time points [5],number of time points [6],number of time points [7],number of time points [8],number of time points [9],number of time points [10]
O=C1NC(=O)/C(=C/c2ccc3c(c2)OC(F)(F)O3)S1 (10 µM),0,0,0,0,0,0,0,0,0,0
CC(C)CN(CC(=O)N1CCN(CC(OCc2ccc3ccccc3c2)c2ccc(Cl)cc2Cl)CC1)CC(C)C (stereo not given) [LYN-1604 (dihydrochloride)] (2.5 µM),0,0,0,0,0,0,0,0,0,0
COc1ccc(C(=C2C(=O)Nc3ccccc32)c2ccc(OC)cc2)cc1 (10 µM),0,0,0,0,0,0,0,0,0,0
COc1cc2ncnc(Nc3cccc(Cl)c3)c2cc1OC (10 µM),0,0,0,0,0,0,0,0,0,0
CC(C)NC(=O)N1CC[C@H](NC2=Nc3cc(F)ccc3N(CC(F)F)c3ccc(Cl)cc32)C1 (10 µM),0,0,0,0,0,0,0,0,0,0
Cn1cc(Nc2nccc(N3C[C@H]4CC[C@@H](C3)N4C(=O)[C@@H]3CC3(F)F)n2)cn1 (10 µM),0,0,0,0,0,0,0,0,0,0
Cc1cc([C@H](C)Nc2ccccc2)c2oc(N3CCOCC3)cc(=O)c2c1 (10 µM),0,0,0,0,0,0,0,0,0,0
N#CC(c1ccnc(NCCc2cccnc2)n1)c1nc2ccccc2s1 (stereo not given) (10 µM),0,0,0,0,0,0,0,0,0,0
COc1cc([N+](=O)[O-])ccc1S(=O)(=O)N1C[C@@H](CN2CCN(c3ccccn3)CC2)[C@H](c2cccc(F)c2)C1 (relative stereo) (10 µM),0,0,0,0,0,0,0,0,0,0
CNC(=O)c1ccc(-c2cnc3cnc(C(=O)N(C)c4ccc(Cl)cc4)cn23)cc1 (2.5 µM),0,0,0,0,0,0,0,0,0,0
Cc1ccc(S(=O)(=O)/C=C/C#N)cc1 (10 µM),0,0,0,0,0,0,0,0,0,0
Cc1ccc(-c2c(C(=O)CF)n(CCCO)c3ncnc(N)c23)cc1 (10 µM),0,0,0,0,0,0,0,0,0,0
C=CC(=O)Nc1cc2c(Nc3ccc(OCc4ccccn4)c(Cl)c3)ncnc2cc1OCCN1CCOCC1 (10 µM),0,0,5,0,0,0,1,0,0,0
Cc1c(CN2CCN(S(C)(=O)=O)CC2)sc2c(N3CCOCC3)nc(-c3cnc(N)nc3)nc12 (2.5 µM),3,0,1,0,0,1,3,0,0,0
CC(C)=CC[C@H](O)C1=CC(=O)c2c(O)ccc(O)c2C1=O [(-)-Alkannin] (2.5 µM),0,0,0,0,0,0,0,0,0,0
Nc1cc(Nc2ccc(S(N)(=O)=O)cc2)ncn1 (10 µM),0,0,0,0,0,0,0,0,0,0

# As a working copy, two of the compounds above.
Compound,number of time points [1],number of time points [2],number of time points [3],number of time points [4],number of time points [5],number of time points [6],number of time points [7],number of time points [8],number of time points [9],number of time points [10]
COc1cc2ncnc(Nc3cccc(Cl)c3)c2cc1OC (10 µM),0,0,0,0,0,0,0,0,0,0
CC(C)NC(=O)N1CC[C@H](NC2=Nc3cc(F)ccc3N(CC(F)F)c3ccc(Cl)cc32)C1 (10 µM),0,0,0,0,0,0,0,0,0,0
